No constants are given. Whether binding was seen depends on the method and setting. Some entries that bind do so weakly or less than the wild type.
Key:
[1] = target: mouse IL-25R (IL-17BR) on ILC2s from Apc1322T/+ mouse tumours and adjacent lamina propria (mouse) (UniProt Q9JIP3); test: Flow cytometry of ILC2s from paired tumours and adjacent lamina propria of Apc1322T/+ mice, stained with D9.2-AF647. Readouts are percent positive cells and geometric mean fluorescence relative to isotype control. [cont) j]
[2] = target: mouse IL-25R (IL-17BR) on ILC2s from Apc1322T/+ mouse tumours and adjacent lamina propria (mouse) (UniProt Q9JIP3); test: Flow cytometry of ILC2s from Apc1322T/+ mouse tumour and adjacent lamina propria, stained with D9.2-AF647 (x axis) against ST2-AF488 (y axis). [cont) i]

Sequences of proteins named here, by UniProt entry; tags and fusion partners are left off. Residues count along the entry.
UniProt Q9JIP3, residues 18-499: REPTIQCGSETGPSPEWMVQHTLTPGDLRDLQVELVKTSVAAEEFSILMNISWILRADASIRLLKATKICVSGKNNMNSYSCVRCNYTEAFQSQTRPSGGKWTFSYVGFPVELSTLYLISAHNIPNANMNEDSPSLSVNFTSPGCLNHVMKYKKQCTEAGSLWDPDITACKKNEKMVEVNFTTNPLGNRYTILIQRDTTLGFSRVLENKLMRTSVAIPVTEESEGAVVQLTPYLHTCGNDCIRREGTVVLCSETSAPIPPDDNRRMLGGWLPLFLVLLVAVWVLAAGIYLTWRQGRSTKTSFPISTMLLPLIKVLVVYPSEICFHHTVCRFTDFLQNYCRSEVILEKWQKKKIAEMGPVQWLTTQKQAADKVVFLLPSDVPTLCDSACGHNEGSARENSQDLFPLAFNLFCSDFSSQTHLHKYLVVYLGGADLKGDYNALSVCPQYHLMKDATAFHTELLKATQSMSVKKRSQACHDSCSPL

B1: anti-IL25R monoclonal antibody (clone D9.2) (antibody, V domains shown)
VH: QVQLQQPGAELVRPGASVKLSCKTSGYTFISYWMNWVKQGPEQGLEWIGRIDPYDSEIQYNQKFKDKAILTVDKSSSAAYMQLISLTSEDSAVYYCARSGGFDWFAYWGQGTLVTVSA
VL: DIQMTQSPASLSVSVGETVTITCRASENINSNLAWYQQKKGKSPQLLVYDVTNLADGVPSRFSGSGSGTQYSLKINSLQSEDFGSYYCQHFWRPPYTFGGGTNLEIK
notes: Murine antibody; also called IL17BR (D9.2, AF647); IL17BR (D9.2, biotin)
[1]
  binding: binds
[2]
  binding: binds
